For one test, the system named is A549. The test can be described thus: cells. The conditions noted are these: Homo sapiens, A549, 72 h, read-out: IC50 (drug concentration that inhibits cell division by 50%). The format is cell-based. Here is the method:
(§1) The drug-sensitive mouse macrophage-like cell line, J774.2, and its Taxol-resistant cell line, J7-T3-1.6, were maintained as previously described. […] Drug-sensitive and vinblastine-resistant human ovarian carcinoma cell lines, SKOV3 and SKVLB, were obtained from Dr. V. Ling, and were maintained as previously described. Both J7-T3-1.6 and SKVLB cells overexpress P-glycoprotein. SKVLB cells were grown in the presence of 1 μM vinblastine. The Taxol-resistant human non-small-cell lung carcinoma cell line, A549-T12, was derived from the drug-sensitive A549 cell line; both cell lines were maintained as previously described.
For the A549 cell lines, cells were seeded at a density of 1×10^4 cells/mL (A549) or 3×10^4 cells/mL (A549-T12), in triplicate, 6-well plates, and allowed to attach for 24 h. […] The SKOV3 and SKVLB cell lines were assayed in a similar manner. Cells were seeded in triplicate, at a density of 6×10^3 cells/mL (SKOV3) or 12×10^3 cells/mL (SKVLB), in 6-well plates, and incubated with a drug for 6 days. […] J774.2 and J7-T3-1.6 cells were plated at a density of 2×10^4 cells/well, in 96-well plates, and allowed to attach overnight. Serial dilutions of each drug were performed, and the cells were incubated for 72 h. The IC50 was determined using the CellTiter 96™ AQueous nonradioactive cell proliferation assay (Promega, Madison, Wis.), which correlates with the number of live cells. […]

The subject of a further test is A549-T12. The test can be described thus: cells. The format is cell-based, human. As to conditions: 72 h. Here is the method: as §1
For the A549 cell lines, cells were seeded at a density of 1×10^4 cells/mL (A549) or 3×10^4 cells/mL (A549-T12), in triplicate, 6-well plates, and allowed to attach for 24 h. […] The SKOV3 and SKVLB cell lines were assayed in a similar manner. Cells were seeded in triplicate, at a density of 6×10^3 cells/mL (SKOV3) or 12×10^3 cells/mL (SKVLB), in 6-well plates, and incubated with a drug for 6 days. […] J774.2 and J7-T3-1.6 cells were plated at a density of 2×10^4 cells/well, in 96-well plates, and allowed to attach overnight. Serial dilutions of each drug were performed, and the cells were incubated for 72 h. The IC50 was determined using the CellTiter 96™ AQueous nonradioactive cell proliferation assay (Promega, Madison, Wis.), which correlates with the number of live cells. Different methods for determining IC50 values were used, depending on the most accurate method for each particular set of cell lines.

For the molecule `COc1cc2c(c(OC)c1OC)-c1ccc(OC)c(=O)cc1[C@@H](NC(C)=O)CC2` [CLC, colchicine], the IC50 was determined as 33 nM in the test with A549 and 33 ± 12.7 nM in the test with A549-T12 (Homo sapiens, read-out: IC50 (drug concentration that inhibits cell division by 50%)). Besides, the “Fold resistance (ratio of IC50 A549-T12 to A549)” value in the test on A549-T12 was 1.0 fold; with A549-T12 (listed as colchicine), “no cross-resistance”.

Source of the values: US6541509B2 (priority 2000, dated 2003).
